PubChem BioAssay AID2662 (National Center for Advancing Translational Sciences (NCATS), 2010)
Out of some 290,000 compounds screened, about 110 (0.038%) were called active. This list was built around the results that the source calls inconclusive (neither active nor inactive); the mix of calls is not that of the screen. The call rests on the fitted dose curve; in most records, active means well fitted inhibition curve with a large enough effect in the polarisation, with a control signal flat (not every such curve was filed as active); inconclusive means small, poorly fitted or top-dose-only effect, or effect the other way, or a change in a side signal; inactive means no such curve, though single readings can be large or run the other way; the % refers to the polarisation. A potency beside an inconclusive call is a rough fit, not a confirmed value. A note “side channel” means that the fit belongs to a control or component signal, not to the main read-out.

Sequences of proteins named here, by UniProt entry; tags and fusion partners are left off.
UniProt Q03164, whole entry, looked up: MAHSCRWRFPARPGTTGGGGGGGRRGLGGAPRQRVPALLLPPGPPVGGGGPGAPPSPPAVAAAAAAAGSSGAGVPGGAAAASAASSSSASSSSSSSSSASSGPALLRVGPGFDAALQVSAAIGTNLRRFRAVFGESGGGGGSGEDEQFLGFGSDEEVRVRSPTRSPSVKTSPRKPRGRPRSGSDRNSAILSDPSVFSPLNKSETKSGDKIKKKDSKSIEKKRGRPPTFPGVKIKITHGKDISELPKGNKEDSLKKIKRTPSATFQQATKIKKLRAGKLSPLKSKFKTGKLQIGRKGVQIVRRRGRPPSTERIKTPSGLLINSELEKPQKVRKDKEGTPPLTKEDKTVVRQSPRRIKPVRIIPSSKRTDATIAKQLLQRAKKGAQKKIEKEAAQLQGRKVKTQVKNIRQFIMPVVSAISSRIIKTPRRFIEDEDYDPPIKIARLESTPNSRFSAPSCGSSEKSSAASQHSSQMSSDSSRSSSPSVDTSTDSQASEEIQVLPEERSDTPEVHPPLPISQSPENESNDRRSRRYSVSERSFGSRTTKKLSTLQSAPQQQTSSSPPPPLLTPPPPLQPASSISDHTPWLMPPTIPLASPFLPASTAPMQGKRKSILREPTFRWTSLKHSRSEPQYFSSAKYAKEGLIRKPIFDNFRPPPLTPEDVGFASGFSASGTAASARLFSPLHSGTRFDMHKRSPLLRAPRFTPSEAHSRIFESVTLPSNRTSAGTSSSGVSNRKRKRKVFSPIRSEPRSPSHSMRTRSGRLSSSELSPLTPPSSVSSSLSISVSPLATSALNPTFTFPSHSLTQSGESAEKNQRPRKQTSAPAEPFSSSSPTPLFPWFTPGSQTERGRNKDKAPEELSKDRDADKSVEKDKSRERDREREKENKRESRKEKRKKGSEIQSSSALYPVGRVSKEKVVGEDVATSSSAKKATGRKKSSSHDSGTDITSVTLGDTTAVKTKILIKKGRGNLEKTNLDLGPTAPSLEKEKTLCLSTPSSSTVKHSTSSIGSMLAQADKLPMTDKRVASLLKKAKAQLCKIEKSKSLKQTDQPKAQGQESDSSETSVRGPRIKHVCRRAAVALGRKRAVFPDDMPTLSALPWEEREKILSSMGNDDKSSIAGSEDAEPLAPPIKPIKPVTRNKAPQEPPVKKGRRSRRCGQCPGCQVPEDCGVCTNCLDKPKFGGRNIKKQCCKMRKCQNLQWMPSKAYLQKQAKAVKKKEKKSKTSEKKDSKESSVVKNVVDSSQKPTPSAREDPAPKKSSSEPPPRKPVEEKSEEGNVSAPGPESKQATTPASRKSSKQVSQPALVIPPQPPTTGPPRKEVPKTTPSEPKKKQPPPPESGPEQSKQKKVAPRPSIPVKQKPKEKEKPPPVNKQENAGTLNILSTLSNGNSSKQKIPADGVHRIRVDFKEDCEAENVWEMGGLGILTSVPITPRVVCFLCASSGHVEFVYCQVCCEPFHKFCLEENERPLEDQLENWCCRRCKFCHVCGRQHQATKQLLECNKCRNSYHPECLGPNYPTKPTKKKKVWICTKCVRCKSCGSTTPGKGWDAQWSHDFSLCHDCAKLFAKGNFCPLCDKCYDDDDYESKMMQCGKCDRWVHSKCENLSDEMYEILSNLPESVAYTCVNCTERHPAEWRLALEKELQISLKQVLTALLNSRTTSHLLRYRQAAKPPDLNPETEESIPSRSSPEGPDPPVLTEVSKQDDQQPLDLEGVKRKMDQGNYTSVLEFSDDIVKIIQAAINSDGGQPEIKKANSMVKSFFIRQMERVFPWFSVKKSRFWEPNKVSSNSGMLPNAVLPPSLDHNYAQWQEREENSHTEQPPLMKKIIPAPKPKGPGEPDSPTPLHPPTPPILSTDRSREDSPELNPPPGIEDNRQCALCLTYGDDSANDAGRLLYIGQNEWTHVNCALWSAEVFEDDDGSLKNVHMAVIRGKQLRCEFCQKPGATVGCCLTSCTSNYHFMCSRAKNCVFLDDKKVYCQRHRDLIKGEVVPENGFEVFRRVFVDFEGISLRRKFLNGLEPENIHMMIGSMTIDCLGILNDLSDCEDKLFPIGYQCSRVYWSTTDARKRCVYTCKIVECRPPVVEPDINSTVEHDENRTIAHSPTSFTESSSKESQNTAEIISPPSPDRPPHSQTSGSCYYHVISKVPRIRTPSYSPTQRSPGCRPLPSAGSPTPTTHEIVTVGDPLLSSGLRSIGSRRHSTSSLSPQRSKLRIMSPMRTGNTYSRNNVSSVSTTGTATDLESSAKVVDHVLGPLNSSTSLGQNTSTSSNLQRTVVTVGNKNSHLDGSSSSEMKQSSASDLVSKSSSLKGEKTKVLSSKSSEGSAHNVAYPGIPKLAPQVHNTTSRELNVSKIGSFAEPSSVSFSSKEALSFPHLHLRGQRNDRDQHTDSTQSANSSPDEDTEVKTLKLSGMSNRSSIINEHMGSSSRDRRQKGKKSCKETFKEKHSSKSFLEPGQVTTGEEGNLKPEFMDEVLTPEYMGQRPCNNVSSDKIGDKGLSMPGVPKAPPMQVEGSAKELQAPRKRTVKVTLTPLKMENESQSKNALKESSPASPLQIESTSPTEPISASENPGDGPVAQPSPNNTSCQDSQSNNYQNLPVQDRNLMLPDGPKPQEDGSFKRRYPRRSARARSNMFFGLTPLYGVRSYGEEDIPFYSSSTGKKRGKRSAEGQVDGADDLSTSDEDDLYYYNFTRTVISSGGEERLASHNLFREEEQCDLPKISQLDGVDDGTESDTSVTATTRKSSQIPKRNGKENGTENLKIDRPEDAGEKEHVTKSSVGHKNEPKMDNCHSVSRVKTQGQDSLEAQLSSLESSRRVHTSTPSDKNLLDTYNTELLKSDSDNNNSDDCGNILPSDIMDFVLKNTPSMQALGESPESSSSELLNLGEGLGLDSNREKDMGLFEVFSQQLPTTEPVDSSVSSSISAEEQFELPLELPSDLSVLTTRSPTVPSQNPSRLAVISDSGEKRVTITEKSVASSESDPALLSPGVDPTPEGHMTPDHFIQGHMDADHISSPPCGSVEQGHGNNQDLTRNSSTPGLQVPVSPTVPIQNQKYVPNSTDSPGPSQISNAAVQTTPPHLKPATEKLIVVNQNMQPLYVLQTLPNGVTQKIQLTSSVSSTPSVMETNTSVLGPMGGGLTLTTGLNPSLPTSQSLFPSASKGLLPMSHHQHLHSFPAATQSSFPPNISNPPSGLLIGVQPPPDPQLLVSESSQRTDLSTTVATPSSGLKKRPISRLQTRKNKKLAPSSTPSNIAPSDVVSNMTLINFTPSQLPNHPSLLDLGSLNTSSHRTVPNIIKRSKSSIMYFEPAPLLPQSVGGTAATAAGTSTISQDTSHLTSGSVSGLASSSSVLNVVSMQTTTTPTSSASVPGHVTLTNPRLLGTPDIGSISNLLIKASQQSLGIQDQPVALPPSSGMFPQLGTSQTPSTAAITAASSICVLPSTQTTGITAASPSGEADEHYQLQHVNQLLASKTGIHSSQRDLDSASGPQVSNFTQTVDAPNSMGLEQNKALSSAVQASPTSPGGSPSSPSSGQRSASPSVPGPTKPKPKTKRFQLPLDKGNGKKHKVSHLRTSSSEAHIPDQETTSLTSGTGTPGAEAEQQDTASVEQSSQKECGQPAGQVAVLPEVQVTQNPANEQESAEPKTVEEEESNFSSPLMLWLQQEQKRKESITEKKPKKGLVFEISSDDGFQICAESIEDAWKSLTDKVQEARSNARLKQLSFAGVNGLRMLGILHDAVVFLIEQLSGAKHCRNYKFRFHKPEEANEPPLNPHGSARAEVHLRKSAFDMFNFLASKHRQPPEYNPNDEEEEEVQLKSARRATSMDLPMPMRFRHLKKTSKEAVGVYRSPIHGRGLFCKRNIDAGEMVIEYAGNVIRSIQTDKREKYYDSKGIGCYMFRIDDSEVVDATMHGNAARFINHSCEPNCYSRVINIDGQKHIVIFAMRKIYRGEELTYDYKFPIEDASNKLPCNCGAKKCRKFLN

Each compound was assayed against Histone-lysine N-methyltransferase 2A (Homo sapiens) (UniProt Q03164) (assay: qHTS Fluorescence Polarization Assay for Inhibitors of MLL CXXC domain - DNA interaction). Conditions: MLL-CXXC / FITC-HOXA9 DNA fluorescence polarization; activity change, negative = inhibition: at 115 µM (top of the series).
How it was run: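 Steps: dispense CXXC domain solution (7 uM) → pin compounds or unlabeled HOX-A9 DNA control → 5 min ambient → add FLSN-HOX-A9 solution (50 nM) → spin → 30 min ambient → fluorescence polarization. Tris pH 7.5/NaCl/DTT/BSA buffer.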
Potency means the concentration at half of the fitted maximal effect.

Question: For `CN1CC2=Cc3ccccc3OC23Oc2ccccc2C=C3C1`, which “activity change, negative = inhibition” value is on record?
Answer: Its value is inactive: -1.9%.

Question: How did the Potency turn out when `CCOC(=O)/C(=N\Nc1cc(Cl)ccc1Cl)N1CC(C)OC(C)C1` (centres undefined) was run?
Answer: The Potency was inconclusive: 15.8 µM [inhibitor, full curve].

Question: With `c1ccc2cc3c(NCCN4CCOCC4)ccnc3cc2c1` as the compound, how does the Potency read?
Answer: The Potency was inconclusive: 35.5 µM [quencher, side channel, partial curve].

Question: Which Potency does the source give for `Cc1cc(-c2nnc(SCC(=O)NC3CC3)n2C(C)C)cs1` here?
Answer: The Potency was inconclusive: 7.08 µM [fluorescent, side channel, single point].

Question: For `O=C1OC(c2ccccc2)/C(=C(/O)c2ccc(Cl)cc2)C1=O` (centres undefined), which Potency is on record?
Answer: The Potency was inconclusive: 17.8 µM [inhibitor, partial curve].

Question: Which Potency does the source give for `COc1cccc(N2CCN(C(=O)C3C4C=CC5(CN(Cc6ccccc6Cl)C(=O)C35)O4)CC2)c1` (centres undefined) here?
Answer: Its Potency is inconclusive: 35.5 µM [inhibitor, single point].

Question: With `Cc1ccc(-n2c(N)cc(=O)nc2SCC(=O)N2CCN(c3ccccc3)CC2)cc1` as the compound, how does the Potency read?
Answer: Its Potency is inconclusive: 14.1 µM [quencher, side channel, single point].

Question: For `CC(C)N(Cc1nccn1C)C(=O)c1cc(COc2ccc(F)cc2Cl)on1`, which Potency is on record?
Answer: Its Potency is inconclusive: 8.91 µM [fluorescent, side channel, single point].

Question: How did the “activity change, negative = inhibition” value turn out when `CCCCC(=O)O[C@]1(C(=O)CO)[C@H](C)C[C@H]2[C@@H]3CCC4=CC(=O)C=C[C@]4(C)[C@@]3(F)[C@@H](O)C[C@@]21C` was run?
Answer: Its value is inactive: 7.2%.

Question: Which “activity change, negative = inhibition” value does the source give for `c1ccc2[nH]c(CN3CCOCC3)nc2c1` here?
Answer: Its value is inactive: -1.68%.

Question: With `COc1ccccc1-c1cc(C(=O)NC(C)C)no1` as the compound, how does the “activity change, negative = inhibition” value read?
Answer: Its value is inactive: -4.32%.

Question: For `CCOC(=O)C(=O)c1c(-c2ccc(C)cc2)nc2ccccn12`, which “activity change, negative = inhibition” value is on record?
Answer: The value was inactive: 2.57%.

Question: How did the Potency turn out when `O=C(NC1CCCCCC1)C(=S)N1CCOCC1` was run?
Answer: Its Potency is inconclusive: 35.5 µM [inhibitor, single point].

Question: For `Cc1ccc(C)c(S(=O)(=O)N/N=C/c2cccnc2)c1`, which Potency is on record?
Answer: The Potency was inconclusive: 14.1 µM [fluorescent, side channel, full curve, poor fit].

Question: How did the Potency turn out when `CCOC(=O)c1ccccc1NC(=O)c1ccc2nc[nH]c2c1` was run?
Answer: The Potency was inconclusive: 17.8 µM [fluorescent, side channel, partial curve].

Question: How did the Potency turn out when `COc1ccc(C/C(C)=N/NC(=S)Nc2ccccc2)cc1` was run?
Answer: The Potency was inconclusive: 31.6 µM [fluorescent, side channel, single point].

Question: For `CC(C)CN(C(=O)COC(=O)c1cncc(Br)c1)c1c(N)n(Cc2ccccc2)c(=O)[nH]c1=O`, which Potency is on record?
Answer: The Potency was inconclusive: 35.5 µM [activator, single point].

Question: For `CCc1ccc(Nc2n[n+](-c3ccccc3)c(-c3ccc(OCc4ccccc4)cc3)s2)cc1`, which Potency is on record?
Answer: The Potency was inconclusive: 31.6 µM [quencher, partial curve].

Question: For `O=C1NN(c2ccccc2)C(=O)/C1=C\c1ccccc1OCC(=O)N1CCOCC1`, which Potency is on record?
Answer: The Potency was inconclusive: 22.4 µM [inhibitor, partial curve].

Question: For `CC1SC(c2ccccc2Cl)NC1=O` (centres undefined), which “activity change, negative = inhibition” value is on record?
Answer: Its value is inactive: 8.49%.

Question: `CN1C(=O)[C@H](Cc2ccc([N+](=O)[O-])cc2)NC1=S` was tested. Which Potency did it give?
Answer: Its Potency is inconclusive: 2.82 µM [fluorescent, side channel, partial curve].

Question: With `CCCCOc1ccc(NC(=O)C2OC3OC(C)(C)OC3C3OC(C)(C)OC23)cc1` (centres undefined) as the compound, how does the Potency read?
Answer: Its Potency is inconclusive: 15.8 µM [inhibitor, single point].

Question: Which “activity change, negative = inhibition” value does the source give for `Cc1cc(NCCCO)n2c(nc3ccccc32)c1C#N` here?
Answer: Its value is inactive: 11.1%.

Question: How did the Potency turn out when `O=C(CSc1ncccn1)NCc1ccc(Cl)cc1` was run?
Answer: The Potency was inconclusive: 31.6 µM [quencher, side channel, single point].

Question: `O=C1CC(Nc2ccc3ccccc3c2)C(=O)N1Cc1ccccc1` (centres undefined) was tested. Which “activity change, negative = inhibition” value did it give?
Answer: Its value is inactive: -1.3%.

Question: For `CC1=CCC(C(=O)O)(C(=O)N/N=C/c2cccs2)C(c2ccc(F)cc2)C1` (centres undefined), which Potency is on record?
Answer: Its Potency is inconclusive: 3.55 µM [fluorescent, side channel, full curve].

Question: `COCCN(C(=S)Nc1ccc(OC)cc1)C1CCN(C(C)=O)CC1` was tested. Which Potency did it give?
Answer: The Potency was inconclusive: 63.1 µM [fluorescent, side channel, partial curve, poor fit].

Question: With `O=C(COc1ccc2ccccc2c1)N[C@@H](C(=O)O)c1ccc(O)cc1` as the compound, how does the Potency read?
Answer: The Potency was inconclusive: 7.94 µM [fluorescent, side channel, single point].

Question: Which Potency does the source give for `COc1cc(/C=C(\C#N)C(=O)Nc2ccc(C(=O)O)cc2)ccc1OC(=O)c1cccc(F)c1` here?
Answer: Its Potency is inconclusive: 14.1 µM [inhibitor, partial curve].

Question: How did the Potency turn out when `O=C(C[n+]1cn(C(F)F)c2ccccc21)c1ccc(OC(F)F)cc1` was run?
Answer: The Potency was inconclusive: 35.5 µM [inhibitor, single point].

Question: How did the Potency turn out when `O=C(CSc1nnc(SCc2cccc3ccccc23)s1)N/N=C/c1c[nH]c2ccccc12` was run?
Answer: The Potency was inconclusive: 89.1 µM [inhibitor, single point].

Question: For `OCc1nc2ccccc2n1Cc1c(F)cccc1Cl`, which “activity change, negative = inhibition” value is on record?
Answer: The value was inactive: -0.108%.

Question: `CC(=O)N1Cc2ccccc2C(C)CC12CCCCC2` (centres undefined) was tested. Which Potency did it give?
Answer: Its Potency is inconclusive: 14.1 µM [inhibitor, single point].

Question: `NCCc1ccc(O)c(O)c1` was tested. Which Potency did it give?
Answer: Its Potency is “inactive”.

Question: How did the Potency turn out when `N#CC(C(=O)NC1CCCCC1)c1nc2ccccc2nc1N1CCN(c2ccc(F)cc2)CC1` (centres undefined) was run?
Answer: Its Potency is inconclusive: 35.5 µM [fluorescent, side channel, single point].

Question: Which Potency does the source give for `CCN(C(=O)COC(=O)c1ccccc1NC(=O)c1ccco1)C1CCS(=O)(=O)C1` (centres undefined) here?
Answer: The Potency was inconclusive: 8.91 µM [fluorescent, side channel, full curve].

Question: With `COc1ccc(O)c(/C=N/NC(=O)c2cc(=O)[nH]c3ccccc23)c1` as the compound, how does the “activity change, negative = inhibition” value read?
Answer: Its value is inactive: 2.15%.

Question: For `CC(C)(C)c1ccc(S(=O)(=O)N2CCN(CCC#N)CC2)cc1`, which Potency is on record?
Answer: The Potency was inconclusive: 15.8 µM [fluorescent, side channel, single point].

Question: With `O=C(c1cccs1)N1CCC(C(=O)N2CCN(Cc3ccc4c(c3)OCO4)CC2)CC1` as the compound, how does the “activity change, negative = inhibition” value read?
Answer: Its value is inactive: 1.84%.

Question: How did the “activity change, negative = inhibition” value turn out when `CC(C)CCNC(=O)C1CCN(S(=O)(=O)c2ccc(-n3cnnn3)cc2)CC1` was run?
Answer: Its value is inactive: 1.87%.

Question: How did the Potency turn out when `CCN1CC=C2C(C#N)=C(N)C(C#N)(C#N)C(c3cc(Cl)ccc3Cl)C2C1` (centres undefined) was run?
Answer: Its Potency is inconclusive: 31.6 µM [fluorescent, side channel, single point].

Question: Which Potency does the source give for `CC(Oc1cccc(Cl)c1)C(=O)Nc1ccncc1` (centres undefined) here?
Answer: Its Potency is inconclusive: 14.1 µM [inhibitor, single point].

Question: `CCNC(=O)CN(c1ccccc1OC)S(=O)(=O)c1cccs1` was tested. Which Potency did it give?
Answer: The Potency was inconclusive: 3.16 µM [fluorescent, side channel, full curve, poor fit].

Question: Which Potency does the source give for `CCn1c(=N)c(S(=O)(=O)c2ccc(Cl)cc2)cc2c(=O)n3ccccc3nc21` here?
Answer: Its Potency is inconclusive: 70.8 µM [fluorescent, side channel, single point].

Question: Which Potency does the source give for `O=C(/C=C/c1ccco1)NC(=S)Nc1cccc(C(=O)O)c1` here?
Answer: The Potency was inconclusive: 35.5 µM [fluorescent, side channel, partial curve].

Question: With `N#C/C(=C\c1ccncc1)C(=O)Nc1ccc(C(=O)O)cc1` as the compound, how does the Potency read?
Answer: The Potency was inconclusive: 7.08 µM [inhibitor, full curve].

Question: With `N#CC1=C(N)OC2=C(CC/C2=C\c2ccccc2)C1c1ccccc1` (centres undefined) as the compound, how does the Potency read?
Answer: Its Potency is inconclusive: 17.8 µM [fluorescent, side channel, full curve].

Question: Which Potency does the source give for `O=C(CNc1ccc2ccccc2c1)N/N=C/c1cc2ccccc2nc1Cl` here?
Answer: Its Potency is inconclusive: 44.7 µM [quencher, side channel, partial curve].

Question: `CCCCc1nc2sc3c(SCCN(C)C)ncnc3c2c2c1CCC2` was tested. Which Potency did it give?
Answer: The Potency was inconclusive: 89.1 µM [quencher, side channel, single point].

Question: `CC1CCN(c2nc(-c3ccccc3)cc(C(F)(F)F)n2)CC1` was tested. Which “activity change, negative = inhibition” value did it give?
Answer: Its value is inactive: -0.919%.

Question: `Cc1nc(-c2ccccn2)sc1C(=O)O` was tested. Which Potency did it give?
Answer: The Potency was inconclusive: 35.5 µM [fluorescent, side channel, partial curve].

Question: How did the “activity change, negative = inhibition” value turn out when `O=C(NCCOC(=O)c1ccc(C(=O)OCCNC(=O)c2cccnc2)s1)c1cccnc1` was run?
Answer: The value was inactive: -3.93%.

Question: For `CC(C)NC(=O)COC(=O)c1cccc(NS(=O)(=O)/C=C/c2ccccc2)c1`, which Potency is on record?
Answer: The Potency was inconclusive: 22.4 µM [inhibitor, partial curve].

Question: For `Cc1cccc(Cn2c(-c3ccc[nH]c3=O)nc3ccccc32)c1`, which Potency is on record?
Answer: The Potency was inconclusive: 14.1 µM [fluorescent, side channel, single point].

Question: For `CCCCn1c(SCC(=O)Nc2cc(C)on2)nc2ccsc2c1=O`, which “activity change, negative = inhibition” value is on record?
Answer: The value was inactive: -1.34%.

Question: How did the Potency turn out when `CCOC(=O)c1c(-c2ccc(OC)cc2)csc1NC(=O)CSc1ncnc2sccc12` was run?
Answer: Its Potency is inconclusive: 50.1 µM [fluorescent, side channel, single point].

Question: Which Potency does the source give for `Cc1ccc(NC(=O)CN2C(=O)S/C(=C\c3ccc(OCC(=O)O)c(Br)c3)C2=O)cc1` here?
Answer: Its Potency is inconclusive: 22.4 µM [inhibitor, partial curve].

Question: How did the “activity change, negative = inhibition” value turn out when `Cc1ccc(C2NC(=O)NC3=C2CCc2ccccc23)cc1` (centres undefined) was run?
Answer: The value was inactive: 6.01%.

Question: For `COc1cc(/C=C(\C#N)c2nc3ccccc3[nH]2)ccc1OC(=O)c1ccco1`, which Potency is on record?
Answer: The Potency was inconclusive: 15.8 µM [fluorescent, side channel, full curve].

Question: For `CC1CN(C(=O)c2ccc(NS(=O)(=O)c3ccc(F)cc3)cc2)CC(C)O1` (centres undefined), which Potency is on record?
Answer: Its Potency is inconclusive: 14.1 µM [quencher, side channel, single point].

Question: `O=C(NCCCNc1ccc(C(F)(F)F)cc1[N+](=O)[O-])c1ccc(F)cc1` was tested. Which “activity change, negative = inhibition” value did it give?
Answer: The value was inactive: 1.94%.

Question: How did the “activity change, negative = inhibition” value turn out when `O=C(NCc1ccncc1)c1ccc(Oc2ccccc2)cc1` was run?
Answer: The value was inactive: 7.21%.

Question: `O=C(NC(=S)NC(CO)Cc1ccccc1)c1ccc(F)cc1` (centres undefined) was tested. Which Potency did it give?
Answer: The Potency was inconclusive: 10 µM [quencher, side channel, single point].

Question: With `O=C(NCc1ccc(Cl)cc1)c1cc(-c2cccs2)on1` as the compound, how does the “activity change, negative = inhibition” value read?
Answer: The value was inactive: 5.6%.
